Results deposited as PubChem BioAssay AID743454 (Peter MacCallum Cancer Centre, 2014).

Aim: 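Knock-downs lowering viability or raising caspase 3/7 activity in vorinostat-treated resistant cells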 (primary screen)
Cells: human HCT116-VR colon cancer cells, selected for vorinostat resistance
Knock-down reagent: siRNA pool against human genes, 40 nM siRNA pool
Timing: vorinostat for 24 h, read-out about 72 h after transfection
Challenge: vorinostat at 2.5 µM final
Detection: 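Cell viability by CellTiter-Fluor and caspase 3/7 activity by luminescence, each scaled to mock wells per plate, duplicates averaged, then robust z-scored over all plates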
Reading the numbers: viability robust z-score: higher = more viable cells than screen typical; caspase robust z-score: higher = more caspase 3/7 activity than screen typical
Call rule: 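Hits are knock-downs in viability class RV1/RV2 or caspase class CA1/CA2, excluding ones that killed cells in the no-drug cell-count arm; hits then retested with single siRNAs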
The whole screen tested about 18,000 reagents; below is a part drawn at random. 450 of all reagents (2.5%) count as active. 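Single biological run; no consistent viability z cut-off exists, so the class columns, not z-scores, define the calls.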

target gene	PubChem SID	viability hit class	caspase hit class	viability robust z-score	caspase robust z-score	activity call
RAB39B	SID152153767	no change	no change	1.32	-0.39	inactive
RHBDL2	SID152156285	no change	no change	0.94	-0.92	inactive
EFHC1	SID152154954	no change	no change	-0.41	2.31	inactive
TNP1	SID135623399	no change	no change	-0.43	1.27	inactive
TUBGCP5	SID152149736	no change	no change	-1.9	2.16	inactive
PHLPP2	SID152148082	no change	no change	0.56	-0.37	inactive
NPM1	SID152147277	no change	no change	0.2	-0.76	inactive
SLC4A7	SID152154275	no change	no change	-1.12	-1.29	inactive
EPHA5	SID152153658	no change	no change	0.38	0.24	inactive
OFCC1	SID134320616	no change	no change	-0.52	-0.02	inactive
PTGER3	SID134311144	no change	no change	0.02	-0.6	inactive
PRXL2A	SID152153677	no change	no change	1.17	-0.66	inactive
RIPOR1	SID134318515	no change	no change	-0.76	-0.43	inactive
RMI2	SID135622991	no change	no change	0.12	-0.75	inactive
AIFM1	SID134316225	no change	no change	-1.6	-0.6	inactive
HEMK1	SID152156479	no change	no change	-0.14	-0.34	inactive
POT1	SID135620791	no change	no change	-2.69	1.64	inactive
TANGO2	SID152155878	no change	CA2 (caspase activation)	-1.98	5.37	active
COL16A1	SID152151745	no change	no change	-0.94	0.47	inactive
MAGEB3	SID134315672	no change	no change	0.64	-0.43	inactive
ZNF571	SID135624130	no change	no change	0.4	0.71	inactive
DNAJC7	SID135623773	no change	no change	-0.7	-0.05	inactive
CCL3L1	SID135621454	no change	no change	-0.04	-0.45	inactive
SLC4A8	SID152155359	no change	no change	0.42	0.29	inactive
SMN2	SID135622412	no change	no change	-1.45	-0.37	inactive
H4C1	SID134315792	no change	no change	0.02	0.34	inactive
ZNF821	SID134324569	no change	no change	0.76	-0.72	inactive

Reformatted: entries from further up.
{"target gene":"PHLPP2","PubChem SID":"SID152148082","viability hit class":"no change","caspase hit class":"no change","viability robust z-score":0.56,"caspase robust z-score":-0.37,"activity call":"inactive"}
{"target gene":"NPM1","PubChem SID":"SID152147277","viability hit class":"no change","caspase hit class":"no change","viability robust z-score":0.2,"caspase robust z-score":-0.76,"activity call":"inactive"}
{"target gene":"SLC4A7","PubChem SID":"SID152154275","viability hit class":"no change","caspase hit class":"no change","viability robust z-score":-1.12,"caspase robust z-score":-1.29,"activity call":"inactive"}
{"target gene":"EPHA5","PubChem SID":"SID152153658","viability hit class":"no change","caspase hit class":"no change","viability robust z-score":0.38,"caspase robust z-score":0.24,"activity call":"inactive"}
{"target gene":"OFCC1","PubChem SID":"SID134320616","viability hit class":"no change","caspase hit class":"no change","viability robust z-score":-0.52,"caspase robust z-score":-0.02,"activity call":"inactive"}
{"target gene":"PTGER3","PubChem SID":"SID134311144","viability hit class":"no change","caspase hit class":"no change","viability robust z-score":0.02,"caspase robust z-score":-0.6,"activity call":"inactive"}

Additional results follow.
target gene	PubChem SID	viability hit class	caspase hit class	viability robust z-score	caspase robust z-score	activity call
CLDN5	SID134315750	no change	no change	-1.02	0.18	inactive
DPAGT1	SID134315605	no change	no change	0.4	1.39	inactive
NAF1	SID134319578	no change	no change	-0.82	1.68	inactive
LIAS	SID134314674	no change	no change	-0.84	-1.03	inactive
CACNB3	SID135621643	no change	no change	0.5	3.15	inactive
CCDC197	SID135623116	no change	no change	-0.75	-0.65	inactive
PGLYRP3	SID134313474	no change	no change	-0.43	0.33	inactive
SYPL2	SID135625149	no change	CA2 (caspase activation)	-1.25	8.58	active
TPI1	SID152154294	no change	no change	0.73	-0.18	inactive
STAMBP	SID135622268	no change	no change	-0.34	1.86	inactive
R3HDM1	SID134321776	no change	no change	-1.65	1.62	inactive
OGN	SID152152318	no change	no change	-0.06	-1.02	inactive
TRIM41	SID135621315	no change	no change	-1.05	1.36	inactive
MYH9	SID152151156	no change	no change	-2.77	-1.19	inactive
SLC35B1	SID152149120	no change	no change	-0.14	-0.29	inactive
OR4F6	SID135625141	no change	no change	0.66	-0.72	inactive
PROC	SID152148685	no change	no change	-1.88	2.93	inactive
RHBDD3	SID134323519	no change	CA2 (caspase activation)	-1.29	6.68	active
MOCS1	SID135622263	no change	no change	0.6	1.29	inactive
LENG9	SID134326896	no change	no change	0.06	2.07	inactive
XPO6	SID152147293	no change	no change	-0.1	-0.06	inactive
RSPO2	SID135623413	no change	no change	1.64	1.34	inactive
ZNF138	SID134324877	no change	no change	-0.9	-1.23	inactive
ANAPC11	SID152148669	no change	no change	-0.76	-0.01	inactive
ARHGDIB	SID135622008	no change	no change	1.32	-0.43	inactive
SPOCK3	SID152152717	no change	no change	0.2	0.08	inactive
MCUR1	SID135621997	no change	no change	0.93	0.08	inactive
ABI1	SID135621342	no change	no change	-1.19	0.44	inactive
TEX26	SID134320729	no change	no change	-0.52	-1.21	inactive
GPAT4	SID134314875	no change	no change	-0.16	0.12	inactive
